Literature values in patent US20180042280A1, “HIGH REBAUDIOSIDE-A PLANT VARIETAL, METHODS OF EXTRACTION AND PURIFICATION THEREFROM, OF COMPOSITIONS WITH ENHANCED REBAUDIOSIDE-A CONTENT AND USES OF SAID COMPOSITION” (GLG Life Tech Corporation, priority 2015, published 2018).

Conditions: Table 1

| Molecule | Quality of taste |
| --- | --- |
| C=C1C[C@@]23CC[C@H]4[C@@](C)(CCC[C@@]4(C)C(=O)O[C@@H]4O[C@H](CO)[C@@H](O)[C@H](O)[C@H]4O[C@@H]4O[C@H](CO)[C@@H](O)[C@H](O)[C@H]4O)[C@@H]2CC[C@]1(O[C@@H]1O[C@H](CO)[C@@H](O)[C@H](O[C@@H]2O[C@H](CO)[C@@H](O)[C@H](O)[C@H]2O)[C@H]1O[C@@H]1O[C@H](CO)[C@@H](O)[C@H](O)[C@H]1O)C3 [Rebaudioside D] | Like sucrose |
| C=C1C[C@@]23CC[C@H]4[C@@](C)(CCC[C@@]4(C)C(=O)O)[C@@H]2CC[C@]1(O)C3 [Steviol] | Very bitter |
| C=C1C[C@@]23CC[C@H]4[C@@](C)(CCC[C@@]4(C)C(=O)O[C@@H]4O[C@H](CO)[C@@H](O)[C@H](O)[C@H]4O)[C@@H]2CC[C@]1(O[C@@H]1O[C@H](CO)[C@@H](O)[C@H](O)[C@H]1O[C@@H]1O[C@H](CO)[C@@H](O)[C@H](O)[C@H]1O)C3 [Stevioside] | Bitter |
| Rebaudioside B | Bitter |
| Rebaudioside C | Bitter |
